We go through 2 molecules from paper doi:10.1101/802025.

No constants are given. Whether binding was seen depends on the method and setting. Binding seen in cells or lysates may run through a third protein. Some entries that bind do so weakly or less than the wild type. Sequences can lack the tags named with a protein.

This experiment addresses T1, WAPL-GFP (Wings apart-like protein, exogenous) (UniProt Q7Z5K2).
T1 sequence: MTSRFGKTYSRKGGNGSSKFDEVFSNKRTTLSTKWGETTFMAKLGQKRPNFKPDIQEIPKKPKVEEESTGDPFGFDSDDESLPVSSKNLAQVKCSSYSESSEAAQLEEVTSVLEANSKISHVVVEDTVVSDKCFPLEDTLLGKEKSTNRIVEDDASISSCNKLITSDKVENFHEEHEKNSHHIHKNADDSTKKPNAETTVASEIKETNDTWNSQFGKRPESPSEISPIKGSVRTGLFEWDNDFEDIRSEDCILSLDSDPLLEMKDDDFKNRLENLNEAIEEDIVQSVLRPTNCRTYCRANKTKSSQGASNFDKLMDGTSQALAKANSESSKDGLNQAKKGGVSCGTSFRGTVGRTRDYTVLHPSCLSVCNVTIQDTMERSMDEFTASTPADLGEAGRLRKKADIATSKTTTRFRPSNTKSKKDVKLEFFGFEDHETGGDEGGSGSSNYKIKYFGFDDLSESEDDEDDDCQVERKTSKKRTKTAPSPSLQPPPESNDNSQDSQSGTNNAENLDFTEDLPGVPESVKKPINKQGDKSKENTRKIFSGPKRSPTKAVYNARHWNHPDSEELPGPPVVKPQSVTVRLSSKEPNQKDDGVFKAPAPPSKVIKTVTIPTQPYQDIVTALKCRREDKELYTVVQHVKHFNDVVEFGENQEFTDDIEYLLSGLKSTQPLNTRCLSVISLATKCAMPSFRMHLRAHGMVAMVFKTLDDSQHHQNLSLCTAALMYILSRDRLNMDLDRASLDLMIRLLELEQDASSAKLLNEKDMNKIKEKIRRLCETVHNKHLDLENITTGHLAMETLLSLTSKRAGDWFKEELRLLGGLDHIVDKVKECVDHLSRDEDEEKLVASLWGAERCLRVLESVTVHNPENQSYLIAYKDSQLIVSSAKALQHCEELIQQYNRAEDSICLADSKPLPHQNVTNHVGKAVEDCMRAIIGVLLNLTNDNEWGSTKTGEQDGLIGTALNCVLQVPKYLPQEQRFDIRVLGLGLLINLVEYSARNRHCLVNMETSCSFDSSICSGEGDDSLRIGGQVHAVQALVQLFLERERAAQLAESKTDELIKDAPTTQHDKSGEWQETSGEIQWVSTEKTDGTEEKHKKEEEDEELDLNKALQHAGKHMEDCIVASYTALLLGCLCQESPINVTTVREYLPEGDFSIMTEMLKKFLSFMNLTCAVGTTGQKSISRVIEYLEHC
Nature of the experiment: co-IP.

Consider “p62 (also known as Sequestosome-1) (from UniProt Q13501 1-440)”, for which the binding entry is recorded as “binds”.

B1: Cohesin-associated factor B (PDS5B) (protein, UniProt Q9NTI5 1-1447)
chain: MAHSKTRTNDGKITYPPGVKEISDKISKEEMVRRLKMVVKTFMDMDQDSEEEKELYLNLALHLASDFFLKHPDKDVRLLVACCLADIFRIYAPEAPYTSPDKLKDIFMFITRQLKGLEDTKSPQFNRYFYLLENIAWVKSYNICFELEDSNEIFTQLYRTLFSVINNGHNQKVHMHMVDLMSSIICEGDTVSQELLDTVLVNLVPAHKNLNKQAYDLAKALLKRTAQAIEPYITNFFNQVLMLGKTSISDLSEHVFDLILELYNIDSHLLLSVLPQLEFKLKSNDNEERLQVVKLLAKMFGAKDSELASQNKPLWQCYLGRFNDIHVPIRLECVKFASHCLMNHPDLAKDLTEYLKVRSHDPEEAIRHDVIVSIVTAAKKDILLVNDHLLNFVRERTLDKRWRVRKEAMMGLAQIYKKYALQSAAGKDAAKQIAWIKDKLLHIYYQNSIDDRLLVERIFAQYMVPHNLETTERMKCLYYLYATLDLNAVKALNEMWKCQNLLRHQVKDLLDLIKQPKTDASVKAIFSKVMVITRNLPDPGKAQDFMKKFTQVLEDDEKIRKQLEVLVSPTCSCKQAEGCVREITKKLGNPKQPTNPFLEMIKFLLERIAPVHIDTESISALIKQVNKSIDGTADDEDEGVPTDQAIRAGLELLKVLSFTHPISFHSAETFESLLACLKMDDEKVAEAALQIFKNTGSKIEEDFPHIRSALLPVLHHKSKKGPPRQAKYAIHCIHAIFSSKETQFAQIFEPLHKSLDPSNLEHLITPLVTIGHIALLAPDQFAAPLKSLVATFIVKDLLMNDRLPGKKTTKLWVPDEEVSPETMVKIQAIKMMVRWLLGMKNNHSKSGTSTLRLLTTILHSDGDLTEQGKISKPDMSRLRLAAGSAIVKLAQEPCYHEIITLEQYQLCALAINDECYQVRQVFAQKLHKGLSRLRLPLEYMAICALCAKDPVKERRAHARQCLVKNINVRREYLKQHAAVSEKLLSLLPEYVVPYTIHLLAHDPDYVKVQDIEQLKDVKECLWFVLEILMAKNENNSHAFIRKMVENIKQTKDAQGPDDAKMNEKLYTVCDVAMNIIMSKSTTYSLESPKDPVLPARFFTQPDKNFSNTKNYLPPEMKSFFTPGKPKTTNVLGAVNKPLSSAGKQSQTKSSRMETVSNASSSSNPSSPGRIKGRLDSSEMDHSENEDYTMSSPLPGKKSDKRDDSDLVRSELEKPRGRKKTPVTEQEEKLGMDDLTKLVQEQKPKGSQRSRKRGHTASESDEQQWPEEKRLKEDILENEDEQNSPPKKGKRGRPPKPLGGGTPKEEPTMKTSKKGSKKKSGPPAPEEEEEEERQSGNTEQKSKSKQHRVSRRAQQRAESPESSAIESTQSTPQKGRGRPSKTPSPSQPKKNVRVGRSKQAATKENDSSEEVDVFQGSSPVDDIPQEETEEEEVSTVNVRRRSAKRERR
For the molecule B1, the binding entry was “binds”.
